Source: PubChem BioAssay AID2685 (National Center for Advancing Translational Sciences (NCATS), 2010)
The list shows a part of the results. These are further read-outs of the screen, such as a control signal, another cell line or another target. No call is given for them. The list favours compounds with an active or inconclusive main result. Words in brackets tell the shape of the fitted curve; partial curves, single points and poor fits give uncertain potencies.

Experiment: qHTS Assay for Lipid Storage Modulators in Drosophila S3 Cells;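 for cell number change: cells counted by Cell Tracker Red CMTPX staining in the red channel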
Conditions: BODIPY lipid droplet fluorescence, 18-24 h; for cell number change: measured here: cell count max response, cells fed with added oleic acid
In short: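 Drosophila S3 cells got compounds at several concentrations plus oleic acid (400 uM solution). Laser-scanning cytometry with 488 nm excitation read lipid droplets at 500-530 nm and cells at 575-640 nm. Percent activity was relative to 20 uM Triacsin C.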

[1] = measured here: cell number channel AC50, cells fed with added oleic acid
[2] = measured here: lipid fluorescence (Fed channel) AC50, cells fed with added oleic acid

| SMILES | cell number change [%] | AC50 [1] | AC50 [2] |
| --- | --- | --- | --- |
| Cc1ccc(S(=O)(=O)N2CCN(C(=O)C3CCCO3)CC2)cc1C (configuration not stated) | 39.8 | 10 µM [rising, partial curve] | 8.91 µM [rising, partial curve] |
| CC(=O)NCCc1nc2ccccc2n1CCOc1cccc(C)c1 | – | – | 1.3 µM [rising, full curve, poor fit] |
| COc1ccccc1C(=O)NN1C(=O)/C(=C/c2cccn2C)SC1=S | 5.55 | – | 0.164 µM [rising, full curve, poor fit] |
| O=C(NCc1cn2ccsc2n1)Nc1cccc(Cl)c1 | 18.8 | – | – |
| CCOC(=O)N1CCN(C(=O)/C=C/c2ccc(OC)cc2)CC1 | -13.7 | – | – |
| COc1ccc(-c2cc(C(=O)Nc3ccc(O)cc3)c3ccccc3n2)cc1OC | 1.22 | – | 0.00461 µM [rising, full curve, poor fit] |
| CCOC(=O)c1cc(-c2ccccc2C)nn1Cc1cc(CC)no1 | -14 | – | 0.206 µM [rising, full curve] |
| CS(=O)(=O)c1ccc(Cl)c(NC(=O)CCCc2nc3ccccc3c(=O)[nH]2)c1 | 51.2 | 13 µM [rising, partial curve] | 2.06 µM [rising, partial curve, poor fit] |
| O=C(N/N=C/c1c(Cl)nc2ccccn2c1=O)c1cccnc1 | -15.3 | – | 0.00461 µM [falling, full curve, poor fit] |
| COc1cccc(OC)c1C(=O)Nc1nc2ccc(S(C)(=O)=O)cc2s1 | 10.9 | – | – |
| Cc1ccccc1CN1CCN(C(=O)c2ccco2)CC1 | 57.7 | 16.4 µM [rising, single point] | – |
| Cc1ccnc(NC(=O)c2cccc(NS(=O)(=O)c3ccccc3C)c2)c1 | -27.9 | – | 29.1 µM [rising, single point] |
| Cc1cccc(NC(=O)NC(C)C(c2cccs2)N2CCOCC2)c1 (configuration not stated) | 44 | 29.1 µM [rising, single point] | – |
| Cc1cc(C(=O)CN2C(=O)c3ccccc3C2=O)c(C)n1Cc1cccs1 | -26.1 | – | 18.4 µM [falling, single point] |
| CC(=O)c1ccc(S(=O)(=O)Nc2ccc(-c3cn4c(n3)SCC4)cc2)cc1 | -12.1 | – | 0.517 µM [rising, single point] |
| Fc1ccc(NC(=S)Nc2cc(-c3ccccc3)[nH]n2)cc1Cl | 17.4 | – | 1.46 µM [rising, partial curve, poor fit] |
| Cc1cc(NC(=O)c2cccc(S(=O)(=O)N3CCC(C)CC3)c2)no1 | -6.93 | 3.26 µM [rising, single point] | 29.1 µM [rising, single point] |
| CC(C)c1nc(SCC(=O)Nc2cccc(C(F)(F)F)c2)c2c(=O)n(C)c(=O)n(C)c2n1 | -22.6 | – | 29.1 µM [falling, single point] |
| C/C(=N\NC(N)=O)c1ccc(Cl)cc1 | -29.4 | – | 29.1 µM [falling, single point] |
| NS(=O)(=O)c1ccc(CCNS(=O)(=O)c2cccc3nsnc23)cc1 | -1.35 | – | 6.51 µM [falling, single point] |
| COc1cccc(/C=C/C(=O)OCC(=O)c2ccc3c(c2)NC(=O)CO3)c1 | 3.62 | – | – |

| SMILES | cell number change [%] | AC50 [1] | AC50 [2] |
| --- | --- | --- | --- |
| CCCCCn1c(=O)[nH]c2cc(C(=O)NCc3ccccn3)ccc2c1=O | -20.6 | – | 0.00461 µM [falling, full curve, poor fit] |
| O=S(=O)(c1ccccc1)N(CC1CO1)c1ccccc1 (configuration not stated) | -18.9 | – | 29.1 µM [falling, single point] |
| COC(=O)C(NC(=O)COc1ccccc1)(Nc1nc2c(s1)CCCC2)C(F)(F)F (configuration not stated) | -21.3 | – | 5.8 µM [falling, single point] |
| CCOc1ccc(NC(=O)N(CCC(C)C)C2CCN(C(C)=O)CC2)cc1 | – | 3.26 µM [rising, single point] | – |
| N#Cc1cc(C#N)c(SCC(=O)N2CC(=O)Nc3ccccc32)nc1N | 6.22 | – | 29.1 µM [falling, single point] |
| NC(=NC1CCCCC1)c1ccc(Cl)cc1 | – | 1.03 µM [rising, full curve] | 0.92 µM [rising, full curve] |
| COc1ccccc1NS(=O)(=O)c1cc(NC(=O)c2sccc2C)ccc1N1CCOCC1 | 11.4 | – | 4.61 µM [rising, full curve] |
| O=C(COc1ccccc1C(=O)NCc1ccncc1)Nc1ccc(Br)cc1 | 41.3 | 8.2 µM [rising, single point] | – |
| CCOc1ccc(N(CC(=O)N2CCN(c3ccccc3OC)CC2)S(=O)(=O)c2ccc(F)cc2)cc1 | -4.62 | – | 18.4 µM [falling, single point] |
| COc1cc(C)cc2oc(=O)c(CC(=O)N3CCN(C(=O)C4COc5ccccc5O4)CC3)c(C)c12 (configuration not stated) | 14.1 | 0.291 µM [rising, full curve, poor fit] | 4.61 µM [falling, single point] |
| CCCCNC(=O)CSc1nc(N)c(C(=O)Nc2ccc(OC)cc2)s1 | 3.15 | – | 1.64 µM [rising, partial curve, poor fit] |
| Cc1ccnc(NC(=O)c2ccccc2NC(=O)c2ccccc2)c1 | 11.8 | – | 0.0291 µM [rising, full curve, poor fit] |
| CCc1noc(N)c1C(=O)Nc1ccc(Cl)cc1 | -3.36 | – | – |
| CC(C)Oc1ccc(-c2cc(=O)[nH]c(=O)[nH]2)cc1 | 3.25 | – | 5.8 µM [falling, partial curve] |
| Cc1ccsc1/C=N/Nc1ccc(F)cc1F | -26.1 | 0.184 µM [falling, full curve, poor fit] | 0.517 µM [falling, full curve] |
| N#Cc1ccccc1OCC(=O)N1CCN(C(=O)c2ccco2)CC1 | -6.73 | – | – |
| O=C(CCCc1ccccc1)NCCC1=CCCCC1 | -27.4 | – | 20.6 µM [falling, single point] |
| CCOC(=O)C1=C(COC(=O)/C=C/c2cc(Br)ccc2F)NC(=O)NC1C (configuration not stated) | -21 | 4.61 µM [falling, single point] | 6.51 µM [falling, single point] |
| CCC(CC)c1nnc(NC(=O)/C=C/c2ccco2)s1 | -19.6 | – | 8.2 µM [falling, partial curve, poor fit] |
| COc1ccc(CN2CCN(C(=O)Cn3ncn4cccc4c3=O)CC2)c(OC)c1OC | 16.7 | – | 29.1 µM [rising, single point] |
| O=C(Nc1c(-c2ccccc2)nc2sccn12)c1ccccc1 | 9.87 | – | – |

Reformatted: results already given.
SMILES | cell number change [%] | AC50 [1] | AC50 [2]
CCOc1ccc(NC(=O)N(CCC(C)C)C2CCN(C(C)=O)CC2)cc1 | – | 3.26 µM [rising, single point] | –
N#Cc1cc(C#N)c(SCC(=O)N2CC(=O)Nc3ccccc32)nc1N | 6.22 | – | 29.1 µM [falling, single point]
NC(=NC1CCCCC1)c1ccc(Cl)cc1 | – | 1.03 µM [rising, full curve] | 0.92 µM [rising, full curve]
COc1ccccc1NS(=O)(=O)c1cc(NC(=O)c2sccc2C)ccc1N1CCOCC1 | 11.4 | – | 4.61 µM [rising, full curve]
O=C(COc1ccccc1C(=O)NCc1ccncc1)Nc1ccc(Br)cc1 | 41.3 | 8.2 µM [rising, single point] | –
CCOc1ccc(N(CC(=O)N2CCN(c3ccccc3OC)CC2)S(=O)(=O)c2ccc(F)cc2)cc1 | -4.62 | – | 18.4 µM [falling, single point]
COc1cc(C)cc2oc(=O)c(CC(=O)N3CCN(C(=O)C4COc5ccccc5O4)CC3)c(C)c12 (configuration not stated) | 14.1 | 0.291 µM [rising, full curve, poor fit] | 4.61 µM [falling, single point]
CCCCNC(=O)CSc1nc(N)c(C(=O)Nc2ccc(OC)cc2)s1 | 3.15 | – | 1.64 µM [rising, partial curve, poor fit]
Cc1ccnc(NC(=O)c2ccccc2NC(=O)c2ccccc2)c1 | 11.8 | – | 0.0291 µM [rising, full curve, poor fit]
CCc1noc(N)c1C(=O)Nc1ccc(Cl)cc1 | -3.36 | – | –
CC(C)Oc1ccc(-c2cc(=O)[nH]c(=O)[nH]2)cc1 | 3.25 | – | 5.8 µM [falling, partial curve]
Cc1ccsc1/C=N/Nc1ccc(F)cc1F | -26.1 | 0.184 µM [falling, full curve, poor fit] | 0.517 µM [falling, full curve]
N#Cc1ccccc1OCC(=O)N1CCN(C(=O)c2ccco2)CC1 | -6.73 | – | –

Going on with the list.

| SMILES | cell number change [%] | AC50 [1] | AC50 [2] |
| --- | --- | --- | --- |
| COc1ccc2[nH]c(C(=O)O)c(NC(=O)c3cc(OC)c(OC)c(OC)c3)c2c1 | 9.93 | – | 3.26 µM [rising, full curve, poor fit] |
| COc1cc2c(cc1OC)CN(C(=O)c1ccc([N+](=O)[O-])o1)CC2 | – | – | 16.4 µM [falling, single point] |
| CCc1ccc(C(=O)N/N=C(\C)c2ccncc2)s1 | 19 | – | 0.116 µM [rising, full curve, poor fit] |
| CCOc1ccc(OCCC(=O)OCC(=O)N2CCN(S(=O)(=O)c3ccc(C)cc3)CC2)cc1 | -2.81 | – | – |
| CC(C)CNC(=S)N1CCC(C(=O)c2ccc3c(c2)OCCO3)CC1 | -30.6 | 29.1 µM [falling, single point] | – |
| CCn1cc(CN2CCCC(CNS(=O)(=O)c3cccc4cccnc34)C2)cn1 (configuration not stated) | -8.38 | – | – |
| COc1ccc(S(=O)(=O)N2CCCC(C(=O)O)C2)cc1Cl (configuration not stated) | -55.2 | 23.1 µM [falling, partial curve, poor fit] | 0.13 µM [falling, full curve, poor fit] |
| CCOC(=O)c1sc(NC(C)=O)nc1-c1ccccc1 | -17.7 | – | – |
| CCc1nccn1S(=O)(=O)c1cc(Br)ccc1OC | 20.8 | – | 2.06 µM [rising, partial curve] |
| COc1cc(S(=O)(=O)N2CCCCC2)ccc1NC(=O)c1ccncc1 | 2.63 | – | – |
| CN1C/C(=C/c2ccsc2)C(=O)/C(=C/c2ccsc2)C1 | -15.1 | – | 14.6 µM [falling, partial curve] |
| COc1ccc(CN(Cc2cc3cccc(C)c3[nH]c2=O)C(=O)N(C)C)cc1 | 30 | – | – |
| Cc1nc(-c2ccc(NC(=O)c3ccccc3Br)cc2)cs1 | 6.74 | – | 1.84 µM [rising, full curve, poor fit] |
| Cc1cc(NC(=O)C2C3C(=O)N(Cc4ccc(Cl)cc4)C(C(=O)NCc4ccccc4)C34C=CC2(C)O4)no1 (configuration not stated) | 38.9 | 13 µM [rising, partial curve, poor fit] | 6.51 µM [rising, single point] |
| Cc1ccccc1CN1CCN(Cc2cc(=O)c3ccccc3[nH]2)CC1CCO (configuration not stated) | 14.5 | – | – |
| Cc1ccc(C)c(S(=O)(=O)N2CCCOC2CNC(=O)C(=O)NCCc2ccco2)c1 (configuration not stated) | 14.7 | 0.116 µM [rising, full curve, poor fit] | – |
| CN(C)/N=C/C=C1\CCC/C(=C\c2ccc(F)c(F)c2)C1=O | 0.809 | – | – |
| CCN(CC)C(=O)c1sc2nc(-c3cccs3)cc(-c3cccs3)c2c1N | -53.6 | 1.46 µM [falling, full curve] | 1.64 µM [falling, full curve] |
| CCOC(=O)COc1ccc(S(=O)(=O)N2CCN(c3ccccc3)CC2)cc1 | -46.8 | 29.1 µM [falling, single point] | 29.1 µM [falling, single point] |
| Cc1noc(C)c1C(=O)Nc1nc(-c2cccs2)cs1 | 7.89 | – | 29.1 µM [falling, single point] |
